Measured values taken from the supplement of paper PMC10849652.
This is one part of the list.

Chains of the proteins cited; added tags and fusions are not shown. Lines headed by an entry give the natural chain unless they say otherwise; changes in a name come on top.
UniProt P19438, whole entry, looked up: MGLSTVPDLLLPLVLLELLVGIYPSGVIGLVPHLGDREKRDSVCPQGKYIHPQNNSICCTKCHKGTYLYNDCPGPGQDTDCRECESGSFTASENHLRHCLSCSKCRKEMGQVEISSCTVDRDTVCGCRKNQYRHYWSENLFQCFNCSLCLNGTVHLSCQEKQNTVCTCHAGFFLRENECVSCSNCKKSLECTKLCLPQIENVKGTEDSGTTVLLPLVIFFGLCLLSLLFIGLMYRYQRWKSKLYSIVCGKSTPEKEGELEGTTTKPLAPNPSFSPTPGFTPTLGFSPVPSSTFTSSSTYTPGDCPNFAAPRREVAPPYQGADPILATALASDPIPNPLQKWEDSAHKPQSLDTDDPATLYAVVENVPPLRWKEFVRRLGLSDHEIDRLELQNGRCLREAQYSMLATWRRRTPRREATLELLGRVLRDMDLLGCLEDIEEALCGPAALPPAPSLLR
UniProt Q9BVT8: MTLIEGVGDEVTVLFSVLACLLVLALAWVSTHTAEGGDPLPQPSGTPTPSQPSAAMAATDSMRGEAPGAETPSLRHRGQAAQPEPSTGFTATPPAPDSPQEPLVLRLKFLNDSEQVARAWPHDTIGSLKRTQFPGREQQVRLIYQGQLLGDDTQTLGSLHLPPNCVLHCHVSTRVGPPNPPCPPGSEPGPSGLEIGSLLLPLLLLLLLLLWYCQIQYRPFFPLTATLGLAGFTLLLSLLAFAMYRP
UniProt Q9BVK8: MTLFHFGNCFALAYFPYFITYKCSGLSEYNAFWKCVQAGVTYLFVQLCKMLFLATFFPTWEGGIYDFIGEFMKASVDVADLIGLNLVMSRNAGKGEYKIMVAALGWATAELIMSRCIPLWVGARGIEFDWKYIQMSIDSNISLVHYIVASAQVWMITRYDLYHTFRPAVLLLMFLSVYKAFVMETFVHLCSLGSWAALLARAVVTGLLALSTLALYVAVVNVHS
UniProt Q9NQ34: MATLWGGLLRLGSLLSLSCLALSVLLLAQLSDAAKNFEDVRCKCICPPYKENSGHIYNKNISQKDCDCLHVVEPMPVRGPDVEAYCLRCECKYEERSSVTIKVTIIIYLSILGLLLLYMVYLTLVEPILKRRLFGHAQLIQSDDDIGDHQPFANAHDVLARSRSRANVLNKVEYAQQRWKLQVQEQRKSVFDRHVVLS
UniProt Q7Z7N9: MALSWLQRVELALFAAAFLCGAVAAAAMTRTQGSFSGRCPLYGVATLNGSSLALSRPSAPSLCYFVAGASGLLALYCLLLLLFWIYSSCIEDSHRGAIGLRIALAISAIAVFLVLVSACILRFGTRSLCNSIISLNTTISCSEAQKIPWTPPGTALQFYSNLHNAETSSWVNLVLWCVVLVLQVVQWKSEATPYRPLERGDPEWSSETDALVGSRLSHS
UniProt Q6NUQ4: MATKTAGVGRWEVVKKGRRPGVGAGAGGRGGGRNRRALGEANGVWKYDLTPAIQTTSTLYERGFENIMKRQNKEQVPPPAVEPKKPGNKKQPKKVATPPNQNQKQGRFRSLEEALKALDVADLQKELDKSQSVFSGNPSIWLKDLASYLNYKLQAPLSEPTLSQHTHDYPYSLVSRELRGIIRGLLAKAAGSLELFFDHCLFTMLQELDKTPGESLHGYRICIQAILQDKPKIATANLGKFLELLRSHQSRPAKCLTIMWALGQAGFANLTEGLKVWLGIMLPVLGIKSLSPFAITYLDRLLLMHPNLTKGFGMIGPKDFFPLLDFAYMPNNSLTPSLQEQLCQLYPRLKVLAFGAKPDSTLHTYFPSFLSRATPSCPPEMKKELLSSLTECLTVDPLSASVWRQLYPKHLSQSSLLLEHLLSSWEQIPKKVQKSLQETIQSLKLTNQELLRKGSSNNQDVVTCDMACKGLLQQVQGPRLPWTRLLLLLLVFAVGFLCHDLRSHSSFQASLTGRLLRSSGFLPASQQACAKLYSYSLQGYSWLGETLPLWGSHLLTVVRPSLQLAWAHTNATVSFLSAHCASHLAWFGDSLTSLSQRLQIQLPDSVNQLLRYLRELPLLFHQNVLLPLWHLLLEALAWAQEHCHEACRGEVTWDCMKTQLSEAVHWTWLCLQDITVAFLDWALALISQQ
UniProt Q9P0S9: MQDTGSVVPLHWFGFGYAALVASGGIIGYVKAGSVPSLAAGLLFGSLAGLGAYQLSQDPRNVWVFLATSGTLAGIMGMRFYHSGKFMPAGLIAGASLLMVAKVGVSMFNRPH
UniProt Q96B96: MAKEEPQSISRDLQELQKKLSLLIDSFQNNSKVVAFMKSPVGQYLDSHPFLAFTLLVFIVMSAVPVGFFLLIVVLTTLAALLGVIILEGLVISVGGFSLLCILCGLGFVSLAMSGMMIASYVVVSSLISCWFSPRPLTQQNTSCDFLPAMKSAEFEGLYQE
UniProt Q9NWH2: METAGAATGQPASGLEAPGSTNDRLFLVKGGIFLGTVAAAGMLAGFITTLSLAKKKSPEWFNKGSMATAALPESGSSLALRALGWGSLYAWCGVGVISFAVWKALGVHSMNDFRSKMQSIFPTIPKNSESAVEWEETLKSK
UniProt Q5SNT2: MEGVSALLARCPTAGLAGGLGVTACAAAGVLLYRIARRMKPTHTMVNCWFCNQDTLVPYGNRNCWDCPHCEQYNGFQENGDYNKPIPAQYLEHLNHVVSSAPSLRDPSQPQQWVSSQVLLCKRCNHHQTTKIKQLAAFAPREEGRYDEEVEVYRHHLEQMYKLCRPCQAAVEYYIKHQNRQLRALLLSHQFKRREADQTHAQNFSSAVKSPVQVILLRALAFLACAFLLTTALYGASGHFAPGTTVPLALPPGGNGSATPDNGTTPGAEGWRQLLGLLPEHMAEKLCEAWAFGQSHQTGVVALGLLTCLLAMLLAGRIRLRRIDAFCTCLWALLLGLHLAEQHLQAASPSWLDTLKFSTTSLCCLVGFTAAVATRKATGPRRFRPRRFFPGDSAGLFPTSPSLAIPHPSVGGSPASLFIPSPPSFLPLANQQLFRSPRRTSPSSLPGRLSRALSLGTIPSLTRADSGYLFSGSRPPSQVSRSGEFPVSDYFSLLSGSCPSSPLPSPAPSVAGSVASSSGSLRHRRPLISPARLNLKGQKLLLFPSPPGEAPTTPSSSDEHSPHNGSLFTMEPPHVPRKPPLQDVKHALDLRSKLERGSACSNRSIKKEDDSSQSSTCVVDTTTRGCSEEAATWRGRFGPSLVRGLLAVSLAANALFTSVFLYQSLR
UniProt Q86XT9, whole entry, looked up: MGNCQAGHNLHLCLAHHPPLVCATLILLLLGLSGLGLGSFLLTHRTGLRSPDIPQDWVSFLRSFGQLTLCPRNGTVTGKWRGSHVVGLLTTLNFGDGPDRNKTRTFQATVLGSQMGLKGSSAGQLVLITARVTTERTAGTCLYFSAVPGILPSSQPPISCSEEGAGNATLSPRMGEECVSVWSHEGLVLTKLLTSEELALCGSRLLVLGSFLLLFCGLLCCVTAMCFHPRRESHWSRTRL
UniProt O94876, whole entry, looked up: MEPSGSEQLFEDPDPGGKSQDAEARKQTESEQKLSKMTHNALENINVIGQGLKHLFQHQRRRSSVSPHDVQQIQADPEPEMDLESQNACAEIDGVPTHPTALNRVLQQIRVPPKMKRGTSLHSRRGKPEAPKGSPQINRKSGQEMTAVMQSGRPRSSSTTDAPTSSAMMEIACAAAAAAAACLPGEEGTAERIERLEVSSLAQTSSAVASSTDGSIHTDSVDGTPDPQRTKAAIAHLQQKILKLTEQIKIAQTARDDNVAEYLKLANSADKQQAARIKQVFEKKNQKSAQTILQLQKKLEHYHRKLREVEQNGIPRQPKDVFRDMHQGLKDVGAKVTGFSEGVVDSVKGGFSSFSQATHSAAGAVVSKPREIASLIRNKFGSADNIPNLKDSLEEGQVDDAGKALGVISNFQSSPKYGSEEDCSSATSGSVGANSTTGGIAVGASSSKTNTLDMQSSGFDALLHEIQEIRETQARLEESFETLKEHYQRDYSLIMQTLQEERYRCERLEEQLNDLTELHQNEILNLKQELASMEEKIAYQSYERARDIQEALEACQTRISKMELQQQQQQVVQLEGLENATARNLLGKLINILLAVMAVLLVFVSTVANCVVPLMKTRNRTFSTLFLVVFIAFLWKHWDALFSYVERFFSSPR
UniProt Q8N131: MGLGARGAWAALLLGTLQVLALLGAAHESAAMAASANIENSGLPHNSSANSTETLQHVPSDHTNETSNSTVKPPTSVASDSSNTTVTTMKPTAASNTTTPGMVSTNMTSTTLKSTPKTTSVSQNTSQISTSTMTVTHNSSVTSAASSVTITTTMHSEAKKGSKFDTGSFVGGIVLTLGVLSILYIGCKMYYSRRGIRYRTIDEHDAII
UniProt P55061, whole entry, looked up: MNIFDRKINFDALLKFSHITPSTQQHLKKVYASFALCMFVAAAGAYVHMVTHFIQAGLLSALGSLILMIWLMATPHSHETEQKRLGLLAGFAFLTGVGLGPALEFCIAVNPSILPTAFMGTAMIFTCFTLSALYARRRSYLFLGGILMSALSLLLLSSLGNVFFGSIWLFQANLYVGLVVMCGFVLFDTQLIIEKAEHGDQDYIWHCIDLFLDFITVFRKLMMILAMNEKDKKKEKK
UniProt O00206, whole entry, looked up: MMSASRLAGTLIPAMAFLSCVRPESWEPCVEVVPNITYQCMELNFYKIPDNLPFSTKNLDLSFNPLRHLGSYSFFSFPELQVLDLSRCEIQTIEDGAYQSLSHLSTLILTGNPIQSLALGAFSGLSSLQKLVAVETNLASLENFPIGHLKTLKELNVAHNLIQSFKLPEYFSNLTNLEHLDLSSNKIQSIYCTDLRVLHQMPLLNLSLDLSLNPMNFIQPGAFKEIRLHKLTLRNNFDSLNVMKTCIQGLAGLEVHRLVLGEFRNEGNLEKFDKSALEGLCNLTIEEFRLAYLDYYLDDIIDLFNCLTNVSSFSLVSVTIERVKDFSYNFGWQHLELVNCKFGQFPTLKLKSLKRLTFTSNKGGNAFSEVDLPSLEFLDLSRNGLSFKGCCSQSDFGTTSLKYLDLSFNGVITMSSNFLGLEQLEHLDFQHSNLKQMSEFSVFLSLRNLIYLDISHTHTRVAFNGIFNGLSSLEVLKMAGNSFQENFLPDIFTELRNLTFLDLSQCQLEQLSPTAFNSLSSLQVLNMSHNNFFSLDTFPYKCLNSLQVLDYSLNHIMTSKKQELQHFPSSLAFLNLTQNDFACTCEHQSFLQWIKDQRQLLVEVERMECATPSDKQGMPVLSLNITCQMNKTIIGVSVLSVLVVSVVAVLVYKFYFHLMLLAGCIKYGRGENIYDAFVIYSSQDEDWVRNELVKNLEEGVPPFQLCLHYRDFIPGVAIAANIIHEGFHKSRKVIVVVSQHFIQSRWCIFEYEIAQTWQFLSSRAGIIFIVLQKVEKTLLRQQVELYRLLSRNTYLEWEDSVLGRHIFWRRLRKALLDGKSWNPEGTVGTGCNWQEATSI
UniProt Q9NUM4, whole entry, looked up: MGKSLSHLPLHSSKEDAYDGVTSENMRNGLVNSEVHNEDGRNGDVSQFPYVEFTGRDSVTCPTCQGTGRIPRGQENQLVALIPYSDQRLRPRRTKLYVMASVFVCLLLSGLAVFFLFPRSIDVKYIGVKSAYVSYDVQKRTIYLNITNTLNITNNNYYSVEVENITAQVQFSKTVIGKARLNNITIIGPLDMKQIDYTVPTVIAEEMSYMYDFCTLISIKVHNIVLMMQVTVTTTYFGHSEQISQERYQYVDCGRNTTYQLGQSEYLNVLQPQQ
UniProt Q96Q45: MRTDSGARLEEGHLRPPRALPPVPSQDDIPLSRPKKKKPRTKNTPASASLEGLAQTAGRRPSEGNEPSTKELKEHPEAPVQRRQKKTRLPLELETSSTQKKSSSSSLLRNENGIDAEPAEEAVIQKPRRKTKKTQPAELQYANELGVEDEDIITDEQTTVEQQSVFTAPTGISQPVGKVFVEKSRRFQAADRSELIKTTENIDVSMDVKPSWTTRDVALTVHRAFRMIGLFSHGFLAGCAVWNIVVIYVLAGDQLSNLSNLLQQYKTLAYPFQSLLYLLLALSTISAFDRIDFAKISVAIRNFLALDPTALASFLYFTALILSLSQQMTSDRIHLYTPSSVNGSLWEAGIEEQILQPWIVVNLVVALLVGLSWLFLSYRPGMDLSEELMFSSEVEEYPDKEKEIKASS
UniProt Q9BXJ8: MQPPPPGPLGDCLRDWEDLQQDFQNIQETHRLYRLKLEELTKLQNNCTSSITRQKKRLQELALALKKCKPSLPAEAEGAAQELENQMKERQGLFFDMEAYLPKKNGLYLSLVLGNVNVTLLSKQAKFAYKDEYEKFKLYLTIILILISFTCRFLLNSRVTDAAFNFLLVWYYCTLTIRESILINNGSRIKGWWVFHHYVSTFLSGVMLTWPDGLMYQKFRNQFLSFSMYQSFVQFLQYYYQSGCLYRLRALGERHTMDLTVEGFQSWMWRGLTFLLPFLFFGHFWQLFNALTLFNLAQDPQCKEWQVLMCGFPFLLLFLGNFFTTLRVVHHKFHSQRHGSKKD

What was measured:
Test in all cases: log2 fold change, soluble protein after heating vs DMSO (PISA); higher = thermal stabilisation; K562 cells, 10 uM, 30 min; active = over 0.2 and 3.5 SD of the protein, either way, in both replicates (recomputed)
[1] = compound: CS(=O)(=O)c1ccc(-c2cnc(N)c(C(=O)Nc3ccccc3)n2)cc1
In short: (§1)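 Soluble protein was quantified by TMTpro 16plex LC-MS/MS after channel sums were equalised. It was obtained as the supernatant after 21,000xg for 90 min from pooled aliquots of K562 cells (2×10^6 cells/mL, 10 μM compound, 30 min) heated for 3 min across 48°C-58°C and extracted in PBS with 0.5% NP-40 at 4°C. Thermal stability values are relative to control samples and come from duplicates. They are given as log2 fold changes.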

[2] = compound: C[C@@H]1COCCN1C2=NC(=NC(=C2)C3(CC3)S(=O)(=O)C)C4=C5C=CNC5=CC=C4
In short: as §1

[3] = compound: C[C@H](C1=CC=C(C=C1)C(=O)NC2=C3C=CNC3=NC=C2)N
In short: as §1

duvelisib = compound: C[C@H](Nc1ncnc2nc[nH]c12)c1cc2cccc(Cl)c2c(=O)n1-c1ccccc1 [duvelisib]
In short: as §1

gandotinib = compound: Cc1cc(Nc2cc(CN3CCOCC3)c3nc(C)c(Cc4ccc(Cl)cc4F)n3n2)n[nH]1 [gandotinib]
In short: as §1

tozasertib = compound: Cc1cc(Nc2cc(N3CCN(C)CC3)nc(Sc3ccc(NC(=O)C4CC4)cc3)n2)n[nH]1 [tozasertib]
In short: as §1

[4] = compound: Cc1cc(SCc2sc(-c3ccc(C(F)(F)F)cc3)nc2C)ccc1OCC(=O)O
In short: as §1

[5] = compound: Cc1cccc(CC(=O)N2CCc3c2ccc(-c2cn(C)c4ncnc(N)c24)c3F)n1
In short: as §1

dasatinib = compound: Cc1nc(Nc2ncc(C(=O)Nc3c(C)cccc3Cl)s2)cc(N2CCN(CCO)CC2)n1 [dasatinib]
In short: as §1

[6] = compound: Cn1cc(-c2ccc3c(c2)CCN3C(=O)Cc2cccc(C(F)(F)F)c2)c2c(N)ncnc21
In short: as §1

tipifarnib = compound: Cn1cncc1[C@@](N)(c1ccc(Cl)cc1)c1ccc2c(c1)c(-c1cccc(Cl)c1)cc(=O)n2C [tipifarnib]
In short: as §1

ispinesib = compound: Cc1ccc(C(=O)N(CCCN)[C@@H](c2nc3cc(Cl)ccc3c(=O)n2Cc2ccccc2)C(C)C)cc1 [ispinesib]
In short: as §1

bafetinib = compound: Cc1ccc(NC(=O)c2ccc(CN3CC[C@H](N(C)C)C3)c(C(F)(F)F)c2)cc1Nc1nccc(-c2cncnc2)n1 [bafetinib]
In short: as §1

nilotinib = compound: Cc1cn(-c2cc(NC(=O)c3ccc(C)c(Nc4nccc(-c5cccnc5)n4)c3)cc(C(F)(F)F)c2)cn1 [nilotinib]
In short: as §1

[7] = compound: Cc1nc(Nc2n[nH]c3c2CN(C(=O)N[C@H](CN(C)C)c2ccccc2)C3(C)C)c2sccc2n1
In short: as §1

[8] = compound: Cc1ncc(-c2ccnc(Nc3ccc(S(C)(=O)=O)cc3)n2)n1C(C)C
In short: as §1

[9] = compound: Cn1cc(-c2ccc3nnc(C(F)(F)c4ccc5ncccc5c4)n3n2)cn1
In short: as §1

mubritinib = compound: FC(F)(F)c1ccc(/C=C/c2nc(COc3ccc(CCCCn4ccnn4)cc3)co2)cc1 [mubritinib]
In short: as §1

crizotinib = compound: C[C@@H](Oc1cc(-c2cnn(C3CCNCC3)c2)cnc1N)c1c(Cl)ccc(F)c1Cl [crizotinib]
In short: as §1

doramapimod = compound: Cc1ccc(-n2nc(C(C)(C)C)cc2NC(=O)Nc2ccc(OCCN3CCOCC3)c3ccccc23)cc1 [doramapimod]
In short: as §1

Target	log2 fold change [1]	log2 fold change [2]	log2 fold change [3]	log2 fold change (duvelisib)	log2 fold change (gandotinib)	log2 fold change (tozasertib)	log2 fold change [4]	log2 fold change [5]	log2 fold change (dasatinib)	log2 fold change [6]	log2 fold change (tipifarnib)	log2 fold change (ispinesib)	log2 fold change (bafetinib)	log2 fold change (nilotinib)	log2 fold change [7]	log2 fold change [8]	log2 fold change [9]	log2 fold change (mubritinib)	log2 fold change (crizotinib)	log2 fold change (doramapimod)
TNFRSF1A (UniProt P19438)	inactive: 0.413	inactive: -0.148	inactive: 0.154	inactive: 0.3	inactive: 0.162	inactive: 0.012	inactive: -0.037	inactive: -0.171	inactive: -0.128	inactive: -0.144	inactive: -0.096	–	–	–	–	–	–	–	–	–
TMUB1 (UniProt Q9BVT8)	inactive: -0.136	inactive: 0.335	inactive: 0.021	inactive: 0.18	inactive: 0.01	inactive: 0.054	inactive: 0	inactive: -0.306	inactive: -0.129	inactive: -0.051	inactive: -0.053	inactive: 0.006	inactive: 0.016	inactive: 0.037	inactive: -0.035	inactive: -0.046	inactive: 0.194	inactive: 0.021	–	–
TMEM147 (UniProt Q9BVK8)	inactive: -0.159	inactive: 0.145	inactive: -0.175	inactive: 0.16	–	inactive: -0.18	inactive: 0.116	–	inactive: -0.018	inactive: 0.02	inactive: 0.224	inactive: -0.122	inactive: -0.056	inactive: -0.032	inactive: 0.037	inactive: -0.065	inactive: 0.026	inactive: -0.085	–	–
TMEM9B (UniProt Q9NQ34)	inactive: -0.035	inactive: 0.105	inactive: 0.061	–	inactive: -0.116	–	–	inactive: 0.036	–	inactive: 0.051	inactive: -0.108	inactive: -0.211	inactive: -0.039	inactive: 0.005	inactive: 0.009	inactive: -0.015	inactive: 0.164	inactive: 0.009	inactive: -0.011	inactive: 0.023
TMEM179B (UniProt Q7Z7N9)	inactive: -0.005	inactive: 0.101	inactive: -0.165	–	inactive: -0.138	–	–	inactive: -0.065	–	inactive: 0.154	inactive: 0.167	inactive: -0.099	inactive: -0.074	inactive: 0.046	inactive: -0.018	inactive: -0.013	inactive: 0.019	inactive: -0.025	inactive: -0.167	inactive: 0.071
TMEM214 (UniProt Q6NUQ4)	inactive: -0.018	inactive: -0.043	inactive: 0.067	–	inactive: -0.079	–	inactive: 0.048	inactive: 0.029	inactive: -0.071	inactive: -0.022	inactive: -0.047	inactive: 0.072	inactive: 0.017	inactive: -0.117	inactive: -0.02	inactive: 0.023	inactive: -0.041	inactive: 0.005	inactive: 0.123	inactive: -0.013
TMEM63B (UniProt Q5T3F8)	inactive: -0.127	inactive: -0.042	inactive: -0.014	–	inactive: -0.028	–	inactive: 0.015	inactive: 0.002	inactive: 0.026	inactive: 0.006	inactive: 0.008	active: -0.312	inactive: 0.013	inactive: -0.008	inactive: -0.021	inactive: -0.061	inactive: 0.004	inactive: 0.047	inactive: 0.045	inactive: -0.047
TMEM268 isoform 3 (UniProt Q5VZI3)	inactive: -0.146	inactive: -0.308	inactive: -0.078	–	inactive: 0.124	–	inactive: -0.063	inactive: -0.096	inactive: -0.194	inactive: 0.112	inactive: 0.003	inactive: -0.227	inactive: 0.318	inactive: 0.008	inactive: -0.005	inactive: 0.165	inactive: 0.014	inactive: 0.109	–	–
TMEM14C (UniProt Q9P0S9)	inactive: -0.042	–	inactive: 0.04	inactive: 0.137	inactive: 0.003	inactive: 0.048	inactive: -0.026	inactive: -0.011	inactive: 0.008	inactive: 0.059	inactive: -0.02	inactive: -0.064	inactive: -0.118	inactive: 0.112	inactive: -0.053	inactive: -0.081	inactive: -0.054	inactive: 0.01	inactive: 0.079	inactive: 0.084
TMEM159 isoform 2 (UniProt Q96B96)	inactive: -0.014	inactive: 0.002	–	inactive: 0.215	inactive: -0.133	inactive: 0.086	inactive: -0.219	inactive: 0	inactive: -0.146	–	–	–	inactive: -0.023	inactive: -0.08	inactive: 0.165	inactive: 0.065	–	inactive: 0.166	–	–
TMEM242 (UniProt Q9NWH2)	inactive: 0.039	inactive: -0.093	inactive: -0.14	inactive: 0.076	inactive: 0.077	inactive: -0.052	inactive: 0.042	inactive: -0.011	inactive: -0.013	inactive: 0.042	inactive: 0.067	inactive: 0.015	inactive: -0.032	inactive: 0.057	inactive: -0.035	inactive: 0.071	inactive: 0.085	inactive: 0.055	–	–
TMEM201 (UniProt Q5SNT2)	inactive: 0.058	inactive: 0.159	inactive: -0.002	inactive: -0.121	inactive: 0.013	inactive: -0.096	inactive: 0.106	inactive: -0.02	inactive: -0.285	inactive: -0.094	–	inactive: -0.133	inactive: -0.059	inactive: -0.064	inactive: -0.055	inactive: -0.178	inactive: -0.079	inactive: -0.39	–	–
TMEM219 (UniProt Q86XT9)	inactive: 0.049	inactive: -0.036	inactive: 0.114	–	inactive: 0.034	–	inactive: -0.241	inactive: 0.027	inactive: -0.11	inactive: 0.092	inactive: 0.063	–	inactive: -0.211	inactive: -0.243	inactive: 0.216	inactive: 0.032	–	–	–	–
TMCC1 (UniProt O94876)	inactive: -0.102	inactive: -0.017	inactive: 0.151	inactive: 0.055	inactive: -0.098	–	inactive: 0.033	inactive: -0.185	inactive: -0.11	inactive: -0.173	–	–	–	–	–	–	–	inactive: -0.046	–	–
TMEM123 (UniProt Q8N131)	inactive: -0.053	inactive: 0.015	–	inactive: 0.036	–	inactive: -0.054	inactive: -0.267	–	inactive: 0.093	–	inactive: 0.139	–	inactive: 0.068	inactive: -0.034	inactive: 0.053	inactive: -0.003	–	inactive: -0.054	–	–
TMBIM6 isoform 2 (UniProt P55061)	inactive: -0.066	inactive: 0.033	inactive: -0.049	–	–	–	inactive: -0.03	–	inactive: -0.081	inactive: 0.063	inactive: -0.269	inactive: -0.407	inactive: -0.135	inactive: -0.158	inactive: 0.028	inactive: -0.037	inactive: -0.073	inactive: 0.036	active: -0.451	inactive: -0.053
TLR4 (UniProt O00206)	inactive: 0.078	–	inactive: 0.274	inactive: 0.188	inactive: 0	inactive: -0.167	inactive: -0.117	inactive: -0.126	inactive: 0.173	inactive: -0.078	inactive: 0.115	inactive: -0.028	inactive: -0.061	–	–	–	inactive: 0.002	–	–	–
TMEM106B (UniProt Q9NUM4)	inactive: -0.024	inactive: 0.389	inactive: -0.054	–	inactive: -0.021	–	inactive: 0	inactive: 0.035	inactive: 0.098	inactive: 0.083	inactive: 0.029	–	inactive: -0.094	inactive: -0.015	inactive: 0.02	inactive: -0.007	–	inactive: 0.023	active: -0.382	inactive: 0.014
TMEM237 isoform 3 (UniProt Q96Q45)	inactive: -0.054	inactive: -0.627	–	–	inactive: -0.23	inactive: -0.325	–	inactive: -0.116	–	–	–	–	–	–	–	–	–	inactive: -0.08	–	–
TMEM120A (UniProt Q9BXJ8)	inactive: -0.137	inactive: 0.175	inactive: -0.11	–	inactive: -0.125	–	inactive: -0.055	inactive: -0.054	inactive: 0.046	inactive: 0.053	inactive: 0.011	inactive: 0.033	active: 0.454	inactive: -0.009	inactive: -0.038	inactive: -0.09	inactive: 0.057	inactive: 0.048	inactive: 0.096	inactive: -0.077
TMEM263 (UniProt Q8WUH6)	inactive: 0.03	inactive: -0.029	inactive: 0.018	–	inactive: -0.385	–	inactive: 0.046	inactive: 0.037	inactive: -0.249	inactive: -0.011	inactive: -0.182	active: -0.936	inactive: -0.434	inactive: -0.079	inactive: -0.027	inactive: 0.124	inactive: 0.02	inactive: 0.054	active: -0.717	inactive: -0.075

An excerpt of these results, bar-delimited.
Target | log2 fold change [1] | log2 fold change [2] | log2 fold change [3] | log2 fold change (duvelisib) | log2 fold change (gandotinib) | log2 fold change (tozasertib) | log2 fold change [4] | log2 fold change [5] | log2 fold change (dasatinib) | log2 fold change [6] | log2 fold change (tipifarnib) | log2 fold change (ispinesib) | log2 fold change (bafetinib) | log2 fold change (nilotinib) | log2 fold change [7] | log2 fold change [8] | log2 fold change [9] | log2 fold change (mubritinib) | log2 fold change (crizotinib) | log2 fold change (doramapimod)
TMEM159 isoform 2 (UniProt Q96B96) | inactive: -0.014 | inactive: 0.002 | – | inactive: 0.215 | inactive: -0.133 | inactive: 0.086 | inactive: -0.219 | inactive: 0 | inactive: -0.146 | – | – | – | inactive: -0.023 | inactive: -0.08 | inactive: 0.165 | inactive: 0.065 | – | inactive: 0.166 | – | –
TMEM242 (UniProt Q9NWH2) | inactive: 0.039 | inactive: -0.093 | inactive: -0.14 | inactive: 0.076 | inactive: 0.077 | inactive: -0.052 | inactive: 0.042 | inactive: -0.011 | inactive: -0.013 | inactive: 0.042 | inactive: 0.067 | inactive: 0.015 | inactive: -0.032 | inactive: 0.057 | inactive: -0.035 | inactive: 0.071 | inactive: 0.085 | inactive: 0.055 | – | –
TMEM201 (UniProt Q5SNT2) | inactive: 0.058 | inactive: 0.159 | inactive: -0.002 | inactive: -0.121 | inactive: 0.013 | inactive: -0.096 | inactive: 0.106 | inactive: -0.02 | inactive: -0.285 | inactive: -0.094 | – | inactive: -0.133 | inactive: -0.059 | inactive: -0.064 | inactive: -0.055 | inactive: -0.178 | inactive: -0.079 | inactive: -0.39 | – | –
TMEM219 (UniProt Q86XT9) | inactive: 0.049 | inactive: -0.036 | inactive: 0.114 | – | inactive: 0.034 | – | inactive: -0.241 | inactive: 0.027 | inactive: -0.11 | inactive: 0.092 | inactive: 0.063 | – | inactive: -0.211 | inactive: -0.243 | inactive: 0.216 | inactive: 0.032 | – | – | – | –
TMCC1 (UniProt O94876) | inactive: -0.102 | inactive: -0.017 | inactive: 0.151 | inactive: 0.055 | inactive: -0.098 | – | inactive: 0.033 | inactive: -0.185 | inactive: -0.11 | inactive: -0.173 | – | – | – | – | – | – | – | inactive: -0.046 | – | –
